These are yes or no findings as the source states them, for the method shown. Binding can be weak; no strength is given.
B1: pallilysin (C24-P237) active site mutant AEXXH (H198A) (enzyme, UniProt O83732 24-237)
chain: CFQHGHVPPRRIPPHDTFGALPTAALPSNARDTAAHPSDTADNTSGSSTTTDPRSHGNAPPAPVGGAAQTHTQPPVQTAMRIALWNRATHGEQGALQHLLAGLWIQTEISPNSGDIHPLLFFDREHAEITFSRASVQEIFLVDSAHTHRKTVSFLTRNTAISSIRRRLEVTFESAEVIHVRAVEDVARLKIGSTSMWDGQYTRYHAGPASAPSP
B2: pallilysin (C24-P237) active site mutant HAXXH (E199A) (enzyme, UniProt O83732 24-237)
chain: CFQHGHVPPRRIPPHDTFGALPTAALPSNARDTAAHPSDTADNTSGSSTTTDPRSHGNAPPAPVGGAAQTHTQPPVQTAMRIALWNRATHGEQGALQHLLAGLWIQTEISPNSGDIHPLLFFDREHAEITFSRASVQEIFLVDSAHTHRKTVSFLTRNTAISSIRRRLEVTFESHAVIHVRAVEDVARLKIGSTSMWDGQYTRYHAGPASAPSP
B3: pallilysin (C24-P237) active site mutant HEXXA (H202A) (enzyme, UniProt O83732 24-237)
chain: CFQHGHVPPRRIPPHDTFGALPTAALPSNARDTAAHPSDTADNTSGSSTTTDPRSHGNAPPAPVGGAAQTHTQPPVQTAMRIALWNRATHGEQGALQHLLAGLWIQTEISPNSGDIHPLLFFDREHAEITFSRASVQEIFLVDSAHTHRKTVSFLTRNTAISSIRRRLEVTFESHEVIAVRAVEDVARLKIGSTSMWDGQYTRYHAGPASAPSP

Target: plasminogen-depleted human fibrinogen (human)
Test: ELISA; fibrinogen or laminin immobilised (0.5 µg per well, Greiner plates); recombinant pallilysin 1-20 µg per well (mutants 20 µg per well) diluted in TBS; washes with TBS-0.1% Tween 20; adherent protein detected with anti-pallilysin rabbit serum and HRP goat anti-rabbit IgG, read at 492 nm; both …

Q: B1 was tested. Which binding did it give?
A: The binding was “binds”.

Q: With B2 as the binder, how does the binding read?
A: The binding was “binds”.

Q: For B3, which binding is on record?
A: Its binding is “binds”.

— publication PMC3406077 (2012)
